The subject of the experiment is CD2F1 mice, L1210 leukemia ip, survival T/C. Nature of the experiment: NCI In Vivo Anticancer Drug Screen. Data for tumor model L1210 Leukemia (intraperitoneal) in CD2F1 (CDF1) mice. As to conditions: T/C endpoint: mean survival time, higher T/C = longer survival. The essentials: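 Antitumor effect is scored in animals hosting a serially transplanted tumor. Values compare compound-dosed animals against vehicle-only controls as a simple quotient.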

[1] abbreviates: dose: 100.0 mg/kg/injection, schedule: Q04DX003 (ip), vehicle: saline with Tween-80.
[2] abbreviates: dose: 200.0 mg/kg/injection, schedule: Q04DX003 (ip), vehicle: saline with Tween-80.
Where [3] appears, read: dose: 200.0 mg/kg/injection, schedule: Q01DX005 (ip), vehicle: water.
[4] abbreviates: dose: 400.0 mg/kg/injection, schedule: Q01DX001 (ip), vehicle: saline with Tween-80.
Setting [5] is: dose: 400.0 mg/kg/injection, schedule: Q01DX009 (ip), vehicle: saline with Tween-80.

The list does not hold the whole screen: it is rich in T/C values a quarter to a half above the control, in often repeated tests (any T/C) and in doses without a T/C. Other doses and runs of a compound stand elsewhere. T/C gives the treated animals as a percentage of the vehicle group. Some doses have a count of surviving animals in place of a T/C: the source files T/C as zero there, which appears to mark a toxic dose or a test without result, not a measured value. Some survivor counts are full or nearly so, which does not show that the dose was tolerated: survival well below the control is almost never listed, so the zero probably covers shortened survival too. Survivors were counted at the toxicity check, usually on the fifth day, unless a day is given; later deaths do not show. Schedules are NCI's codes, taken here to give the interval after Q, in days (D) or hours (H), and the number of doses after X. Where survival is the endpoint, the PubChem record calls one and a half times the control and up active, and a quarter to a half above the control has no call in these data; cut-offs in other NCI protocols can differ. Some doses were run more than once; their values stand side by side, smallest first. Marks such as (2×) say how often a value occurs here.

Results on 23 molecules are retold here after PubChem BioAssay AID256 (DTP/NCI, 2004).

`COc1ccc(OC)c(/C=C/c2ccc3ccccc3[n+]2C)c1`: the survivor count by setting is: (dose: 20.0 mg/kg/injection, schedule: Q01DX009 (ip), vehicle: saline with Tween-80) 3 of 6; under setting [1], 0 of 6; under setting [2], 0 of 6; (dose: 400.0 mg/kg/injection, schedule: Q04DX003 (ip), vehicle: saline with Tween-80) 0 of 6.

Consider `CC(=O)Nc1ncc(CN2CCCCC2)s1`, for which the survivor count (dose: 400.0 mg/kg/injection, schedule: Q04DX002 (ip), vehicle: Klucel (hydroxypropylcellulose) (HPC)) was 0 of 3.

Regarding `Nc1ncnc2c1nc(Cl)n2C1OC2COP(=O)(O)OC2C1O` (stereo unspecified), the survivor count runs as follows: (dose: 100.0 mg/kg/injection, schedule: Q01DX005 (ip), vehicle: water) 1 of 3; under setting [3], 0 of 3.

As to `CN(c1ccccc1)c1ccccc1`, under setting [4], the survivor count is 5 of 6.

As to `N=C(N)c1ccc(N)cc1`, the survivor count (dose: 400.0 mg/kg/injection, schedule: Q04DX003 (ip), vehicle: saline) was 1 of 6.

As to `CCCCCCCCCCCCCCCCCC(=O)NNCCO`, the survivor count under setting [5] is reported as 0 of 6.

On to `COc1cc2c(cc1OC)C(c1cc(OC)c(OC)c(OC)c1)=NCC2`, for which, under setting [1], the survivor count is 6 of 6.

With `Cc1cc([N+](=O)[O-])c(S(N)(=O)=O)c([N+](=O)[O-])c1`, the survivor count (dose: 100.0 mg/kg/injection, schedule: Q01DX009 (ip), vehicle: Klucel (hydroxypropylcellulose) (HPC)) is listed as 6 of 6; the survivor count (dose: 200.0 mg/kg/injection, schedule: Q01DX009 (ip), vehicle: Klucel (hydroxypropylcellulose) (HPC)) is on record as 3 of 6; the survivor count (dose: 400.0 mg/kg/injection, schedule: Q01DX009 (ip), vehicle: Klucel (hydroxypropylcellulose) (HPC)) is listed as 0 of 6.

In the case of `c1ccc(CCSc2ncnc3nc[nH]c23)cc1`, the T/C (dose: 62.5 mg/kg/injection, schedule: Q01DX009 (ip), vehicle: saline) is 98, 101 (2×), 103 % of control; the T/C (dose: 125.0 mg/kg/injection, schedule: Q01DX009 (ip), vehicle: saline) is 102, 104, 112, 113 % of control; the T/C (dose: 250.0 mg/kg/injection, schedule: Q01DX009 (ip), vehicle: saline) was 108, 118, 122, 130 % of control; the T/C (dose: 500.0 mg/kg/injection, schedule: Q01DX009 (ip), vehicle: saline) was 122, 134, 163 % of control (2×).

Consider `CC(C)(C)C(Br)C(=O)O` (stereo unspecified), for which the survivor count (dose: 300.0 mg/kg/injection, schedule: Q01DX001 (ip), vehicle: saline with Tween-80) is 2 of 6.

As for `Nc1ccc(NC(=S)Nc2ccc(N)cc2)cc1`, the survivor count runs as follows: (dose: 100.0 mg/kg/injection, schedule: Q04DX003 (ip), vehicle: Klucel (hydroxypropylcellulose) (HPC)) 5 of 6; (dose: 200.0 mg/kg/injection, schedule: Q04DX003 (ip), vehicle: Klucel (hydroxypropylcellulose) (HPC)) 4 of 6; (dose: 400.0 mg/kg/injection, schedule: Q04DX003 (ip), vehicle: Klucel (hydroxypropylcellulose) (HPC)) 1 of 6.

With `CC1(C)OCC(CO)([N+](=O)[O-])CO1`, the survivor count by setting is: under setting [2], 0 of 6; (dose: 300.0 mg/kg/injection, schedule: Q04DX003 (ip), vehicle: saline with Tween-80) 0 of 6.

For `COc1ccc(/C=N\NC(=O)CNC(=O)Nc2cccc(C(F)(F)F)c2)cc1OC`, the survivor count by setting is: (dose: 25.0 mg/kg/injection, schedule: Q01DX009 (ip), vehicle: saline with Tween-80) 3 of 3; (dose: 50.0 mg/kg/injection, schedule: Q01DX009 (ip), vehicle: saline with Tween-80) 3 of 3.

Take `Cc1cn(C2CCC3(C)C(=CCC4C3CCC3(C)C(C(C)CCCC(C)C)CCC43)C2)c(=O)[nH]c1=O` (stereo unspecified): where the note is “dose: 18.8 mg/kg/injection, schedule: Q01DX001 (ip), vehicle: Klucel (hydroxypropylcellulose) (HPC)”, the survivor count is listed as 3 of 3.

`Nc1ncnc2c1c1c(=O)[nH]nnc1n2C1OC(CO)C(O)C1O` (stereo unspecified): the survivor count is recorded as 4 of 4 (dose: 100.0 mg/kg/injection, schedule: Q01DX009 (ip), vehicle: distilled water + Tween-80); 5 of 5 under setting [3]; 3 of 4 (dose: 200.0 mg/kg/injection, schedule: Q01DX009 (ip), vehicle: distilled water + Tween-80); 0 of 5 (dose: 400.0 mg/kg/injection, schedule: Q01DX005 (ip), vehicle: water).

As for `ClC1=NC(Cl)C(Cl)=N/C1=N\c1ncn[nH]1` (stereo unspecified), the survivor count reads like this: under setting [1], 5 of 6; (dose: 200.0 mg/kg/injection, schedule: Q04DX003 (ip), vehicle: saline sonified) 2 of 6; (dose: 400.0 mg/kg/injection, schedule: Q04DX003 (ip), vehicle: saline sonified) 1 of 6.

`Clc1ccc2c(CBr)ccnc2c1`: the survivor count (dose: 200.0 mg/kg/injection, schedule: Q04DX003 (ip), vehicle: other) was 1 of 6.

For `CO/N=C/c1ccc([N+](=O)[O-])s1`, the survivor count is recorded as 2 of 6 (dose: 100.0 mg/kg/injection, schedule: Q01DX009 (ip), vehicle: saline) and 1 of 6 (dose: 200.0 mg/kg/injection, schedule: Q01DX009 (ip), vehicle: saline).

As to `CCC[CH2][Sn]([CH2]CCC)([O]C(=O)COc1ccc(C(=O)c2ccccc2)c(O)c1)[O]C(=O)COc1ccc(C(=O)c2ccccc2)c(O)c1`, the survivor count by setting is: (dose: 25.0 mg/kg/injection, schedule: Q01DX001 (ip), vehicle: saline with Tween-80) 0 of 3; (dose: 50.0 mg/kg/injection, schedule: Q01DX001 (ip), vehicle: saline with Tween-80) 0 of 3; (dose: 100.0 mg/kg/injection, schedule: Q01DX001 (ip), vehicle: saline with Tween-80) 1 of 3; (dose: 200.0 mg/kg/injection, schedule: Q01DX001 (ip), vehicle: saline with Tween-80) 0 of 3; under setting [4], 0 of 3.

With `CC[O+](CC)CC`, the survivor count (dose: 100.0 mg/kg/injection, schedule: Q04DX002 (ip), vehicle: saline) is on record as 1 of 3; the survivor count (dose: 200.0 mg/kg/injection, schedule: Q04DX002 (ip), vehicle: saline) is on record as 1 of 3; the survivor count (dose: 400.0 mg/kg/injection, schedule: Q04DX002 (ip), vehicle: saline) is given as 0 of 3.

Turning to `CCCSCC`, the survivor count is given as 6 of 6 (dose: 200.0 mg/kg/injection, schedule: Q01DX009 (ip), vehicle: saline with Tween-80) and 5 of 6 under setting [5].

On to `Nc1nc(S)c(N)c(=S)[nH]1`, for which the survivor count is 0 of 6 (dose: 150.0 mg/kg/injection, schedule: Q01DX001 (ip), vehicle: carboxymethylcellulose (CMC)) and 0 of 6 (dose: 300.0 mg/kg/injection, schedule: Q01DX001 (ip), vehicle: carboxymethylcellulose (CMC)).

Take `Cc1ccc(Sc2cccc3c(C)c4cccc5c4c(c23)C[S+]5c2ccc(C)cc2)cc1` (stereo unspecified): the survivor count is given as 3 of 6 (dose: 12.5 mg/kg/injection, schedule: Q04DX003 (ip), vehicle: saline with Tween-80) and 3 of 6 (dose: 25.0 mg/kg/injection, schedule: Q04DX003 (ip), vehicle: saline with Tween-80).
